{
  "sequences": {"note": "By UniProt entry, the sequences of proteins in these tests, tags left out. Where a name states a change or a piece, a line headed by the entry shows the natural chain unless it says otherwise.", "UniProt P11473": "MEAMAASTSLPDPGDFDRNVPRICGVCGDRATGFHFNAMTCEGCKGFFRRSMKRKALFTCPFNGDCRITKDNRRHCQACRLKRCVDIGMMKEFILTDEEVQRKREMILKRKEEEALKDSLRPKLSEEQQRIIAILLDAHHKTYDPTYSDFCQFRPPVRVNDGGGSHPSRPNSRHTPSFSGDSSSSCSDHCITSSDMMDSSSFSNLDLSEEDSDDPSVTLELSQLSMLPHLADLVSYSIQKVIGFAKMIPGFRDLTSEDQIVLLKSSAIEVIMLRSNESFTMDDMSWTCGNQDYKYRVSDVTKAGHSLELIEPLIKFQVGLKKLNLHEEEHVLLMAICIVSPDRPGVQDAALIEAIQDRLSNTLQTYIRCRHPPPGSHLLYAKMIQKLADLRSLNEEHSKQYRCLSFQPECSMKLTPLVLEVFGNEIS"},
  "source": "PubChem BioAssay AID504847",
  "about": "(National Center for Advancing Translational Sciences (NCATS), 2011)",
  "note": "The whole screen tested about 400,000 compounds, of which about 3,700 (0.93%) were called active. This list was built around the results that the source calls inconclusive (neither active nor inactive); the mix of calls is not that of the screen. Calls follow the shape of the dose curve; as a rule, active = well fitted inhibition curve with a large enough effect; inconclusive = small, poorly fitted or top-dose-only effect, or another doubt; inactive = no such curve, though single readings can be large or run the other way. Where the call is inconclusive, the potency comes from a doubtful curve fit. % is scaled to controls: 0 for no effect and ±100 for the full control effect; potency is read from the fitted curve at half-maximal effect.",
  "data": [
    {"biological_target": "Vitamin D3 receptor (Homo sapiens) (UniProt P11473)", "experiment": "Inhibitors of the vitamin D receptor (VDR): qHTS", "settings": "VDR-SRC2-3 peptide fluorescence polarization, 2 h; max response, negative = inhibition: hits give low values", "in_short": "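FP read-out; VDR + SRC2-3 coactivator peptide; 23 nl compound by pintool; 2 h RT incubation; reagents held at 4 deg C, protected from light.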", "values": [
      {"compound": "CC1(C)C(/C=C/C=C/C=C/C=C2\\N(CCCCS(=O)(=O)O)c3ccc4ccccc4c3C2(C)C)=[N+](CCCCS(=O)(=O)[O-])c2ccc3ccccc3c21", "Potency": "inconclusive: 15.8 µM [inhibitor, full curve, poor fit]"},
      {"compound": "CCOc1ccccc1/C=C/C(=O)c1ccc(Cl)cc1", "Potency": "inconclusive: 89.1 µM [inhibitor, single point]"},
      {"compound": "S=C(Nc1cccc(Cl)c1Cl)N1CCC2(CC1)OCCO2", "Potency": "inconclusive: 70.8 µM [inhibitor, partial curve]"},
      {"compound": "Cc1ccc2c(=O)cc(C(=O)Nc3nc4ccc(Cl)cc4s3)oc2c1", "max response, negative = inhibition": "inactive: 4.48%"},
      {"compound": "Cc1ccc(-c2csc(/C(C#N)=C(\\O)CN3CCN(C(=O)c4ccco4)CC3)n2)cc1", "max response, negative = inhibition": "inactive: 10.5%"},
      {"compound": "Cn1c(=O)c2c(ncn2CC(=O)OCC(=O)Nc2cc(Cl)ccc2Cl)n(C)c1=O", "Potency": "inconclusive: 89.1 µM [inhibitor, single point]"},
      {"compound": "CS(=O)(=O)N1CCC[C@@]2(CCN(c3ccccc3)C2)C1", "Potency": "inconclusive: 35.5 µM [inhibitor, partial curve]"},
      {"compound": "COc1cc2c3nnc(-c4ccccc4)c-3cn(Cc3ccc(F)cc3)c2cc1OC", "max response, negative = inhibition": "inactive: 13.2%"},
      {"compound": "CCSC1(SCC)N=C(N)C2(C#N)C(c3ccc(F)cc3)C12C#N", "note": "(configuration not stated)", "Potency": "active: 89.1 µM"},
      {"compound": "CCC1CCCCN1C(=O)c1ccc(OC)c(OC2CCN(C(C)=O)CC2)c1", "note": "(configuration not stated)", "max response, negative = inhibition": "inactive: -3.32%"},
      {"compound": "CCN1CCN(CCNC(=O)c2cn(C(C)c3ccccc3F)nn2)CC1", "note": "(configuration not stated)", "Potency": "inconclusive: 7.94 µM [inhibitor, partial curve, poor fit]"},
      {"compound": "O=C(CCCn1c(=O)c2ccccc2n(Cc2cccc(F)c2)c1=O)NCc1ccccc1Cl", "Potency": "inconclusive: 89.1 µM [inhibitor, single point]"},
      {"compound": "O=C1CC(=O)N(Cc2ccco2)C(=S)N1", "Potency": "inconclusive: 56.2 µM [inhibitor, partial curve, poor fit]"},
      {"compound": "Cc1ccc(NCC(=O)c2ccc([N+](=O)[O-])cc2)cc1", "Potency": "inconclusive: 70.8 µM [inhibitor, partial curve]"},
      {"compound": "COc1ccc2c(c1)nc(SCC(=O)C(C)(C)C)n2C", "Potency": "inconclusive: 89.1 µM [inhibitor, single point]"},
      {"compound": "CN(C)C(=O)NC(NC(=S)Nc1ccccc1)C(Cl)(Cl)Cl", "note": "(configuration not stated)", "Potency": "inconclusive: 0.708 µM [inhibitor, full curve, poor fit]"},
      {"compound": "COc1ccccc1-c1nnc(SCC(=O)NC2CC2)n1C", "Potency": "inconclusive: 79.4 µM [inhibitor, single point]"},
      {"compound": "COC(=O)c1ccc(NC(=O)Nc2ccc(OC)c(OC)c2)cc1", "max response, negative = inhibition": "inactive: -0.978%"},
      {"compound": "CCc1nn(CC(=O)NC2CCN(Cc3ccccc3)CC2)c(=O)c2cc3cc(F)ccc3n12", "max response, negative = inhibition": "inactive: 4.19%"},
      {"compound": "Cc1onc(-c2ccccc2)c1C(O)c1ccc(F)cc1", "note": "(configuration not stated)", "max response, negative = inhibition": "inactive: 15%"},
      {"compound": "CCOc1ccc2ccccc2c1C(=O)N1CCN(c2ccccc2)CC1", "max response, negative = inhibition": "inactive: -6.82%"},
      {"compound": "CCOc1cc(/C=C2/C(=O)N(c3ccccc3)N=C2C)ccc1OC(=O)c1ccco1", "Potency": "inconclusive: 63.1 µM [inhibitor, partial curve, poor fit]"},
      {"compound": "O=C(O)CN1C(=O)/C(=C\\c2ccccc2OCc2ccc(F)cc2)SC1=S", "Potency": "inconclusive: 56.2 µM [inhibitor, partial curve, poor fit]"},
      {"compound": "CC(Sc1ncnc2ccccc12)C(=O)Nc1ccc2c(c1)OCO2", "note": "(configuration not stated)", "Potency": "inconclusive: 79.4 µM [inhibitor, partial curve, poor fit]"},
      {"compound": "COc1ccc(N2CCN(C(=O)c3nn(-c4ccc(C)cc4)c(=O)n(C)c3=O)CC2)cc1", "max response, negative = inhibition": "inactive: 11.3%"},
      {"compound": "O=C(NC1CCCC1)C(c1ccncc1)N(C(=O)c1ccco1)c1ccc(F)c(Cl)c1", "note": "(configuration not stated)", "max response, negative = inhibition": "inactive: 7.85%"},
      {"compound": "CN(C)c1ccc(-c2ccc3ncnc(-n4ccnc4)c3c2)cc1", "Potency": "active: 15.8 µM"},
      {"compound": "O=C(O)c1ccc2nc(-c3ccco3)c(-c3ccco3)nc2c1", "Potency": "inconclusive: 89.1 µM [inhibitor, partial curve, poor fit]"},
      {"compound": "O=C(/C=C/c1ccccc1F)c1ccoc1", "Potency": "inconclusive: 79.4 µM [inhibitor, partial curve, poor fit]"},
      {"compound": "Oc1c(Br)cc(/C=N/n2c(-c3ccccc3)n[nH]c2=S)cc1Br", "Potency": "inconclusive: 79.4 µM [inhibitor, single point]"},
      {"compound": "CC(=O)Nc1cc(NC(C)=O)cc(C(=O)NCC2(N3CCOCC3)CCCCC2)c1", "max response, negative = inhibition": "inactive: -8.59%"},
      {"compound": "CC(=O)c1cccc(NC(=O)c2ccc3nc(C(C)C)oc3c2)c1", "max response, negative = inhibition": "inactive: -6.65%"},
      {"compound": "O=C(CNC(=S)N(CCCN1CCOCC1)Cc1cccs1)NC1CCCC1", "max response, negative = inhibition": "inactive: 14.9%"},
      {"compound": "CC[C@]12c3[nH]c4cc(-c5ccco5)ccc4c3CCN1C(=O)[C@@H](CC(=O)NCC13CC4CC(CC(C4)C1)C3)C[C@@H]2C(=O)N1CCN(C(=O)c2ccco2)CC1", "Potency": "inconclusive: 79.4 µM [inhibitor, single point]"},
      {"compound": "COc1ccc(/C=C/C(=O)c2ccc(O)cc2)cc1CN1CCOCC1", "Potency": "inconclusive: 44.7 µM [inhibitor, full curve, poor fit]"},
      {"compound": "O=c1c2ccccc2nnn1Cc1ccccc1Cl", "max response, negative = inhibition": "inactive: 7.43%"},
      {"compound": "Clc1ccc(Nc2nc(-c3ccccc3)c3cc(Cl)ccc3n2)cc1", "max response, negative = inhibition": "inactive: -15.8%"},
      {"compound": "O=C1/C(=C/c2ccc(C(=O)O)cc2)CCC/C1=C\\c1ccc(C(=O)O)cc1", "Potency": "inconclusive: 89.1 µM [inhibitor, single point]"},
      {"compound": "Cc1cn(C2CCC(CO)O2)c(=O)[nH]c1=O", "note": "(configuration not stated)", "Potency": "inconclusive: 89.1 µM [inhibitor, single point]"},
      {"compound": "O=C(O)c1cccnc1Sc1ccc(Cl)cc1", "Potency": "inconclusive: 89.1 µM [inhibitor, single point]"},
      {"compound": "COC(=O)C1=C(C)Nc2ccc(C)cc2S1", "Potency": "active: 70.8 µM"},
      {"compound": "CCOc1ccc2nc(NC(=O)Cn3c(C)csc3=O)sc2c1", "Potency": "inconclusive: 44.7 µM [inhibitor, partial curve]"},
      {"compound": "Clc1ccc(Cl)c(-c2nn3c(COc4ccccc4)nnc3s2)c1", "Potency": "inconclusive: 56.2 µM [inhibitor, partial curve, poor fit]"},
      {"compound": "COc1ccc(OC)c(CCNC(=O)c2cc3c(=O)n(C)c4ccccc4c3n2C)c1", "max response, negative = inhibition": "inactive: -11.6%"},
      {"compound": "CCOC(=O)c1cccc(NC(=O)C2CCCN(S(=O)(=O)c3cc(Br)cc4c3N(C(=O)CC)CC4)C2)c1", "note": "(configuration not stated)", "max response, negative = inhibition": "inactive: 1.91%"},
      {"compound": "C/C=C1\\COC(C(=O)NCc2ccccc2)(C(F)(F)F)C=C1C=C(C)C", "note": "(configuration not stated)", "Potency": "inconclusive: 89.1 µM [inhibitor, single point]"},
      {"compound": "CC(C)N=C1NN=C(c2cccs2)C(CC(=O)O)S1", "note": "(configuration not stated)", "Potency": "inconclusive: 89.1 µM [inhibitor, partial curve, poor fit]"},
      {"compound": "COc1cc(O)c2c(=O)c3c(O)ccc(O)c3oc2c1", "Potency": "inconclusive: 7.94 µM [inhibitor, partial curve, poor fit]"},
      {"compound": "Cc1nnc(SC/C=C/c2ccccc2)n(N)c1=O", "max response, negative = inhibition": "inactive: -24.6%"},
      {"compound": "COc1cc2c(Cc3c4c5c(cc(OC)c(OC)c5c5c(OC)c(OC)ccc35)CCN4C)c3c4c(cc(OC)c(OC)c4c2cc1OC)CCN3C", "Potency": "inconclusive: 70.8 µM [inhibitor, single point]"},
      {"compound": "CCN1C(=O)[C@H]2[C@@H](c3ccc(-c4ccc(C(C)=O)cc4)cc3)N3CCC[C@@]3(C(=O)OC)[C@H]2C1=O", "max response, negative = inhibition": "inactive: -26.3%"},
      {"compound": "O=S(=O)(c1cccc(-c2cn3ccccc3n2)c1)N1CCCC1", "Potency": "inconclusive: 39.8 µM [inhibitor, single point]"},
      {"compound": "COc1ccc(C(=O)Oc2ccc(C(c3c(C)[nH][nH]c3=O)c3c(C)[nH][nH]c3=O)cc2OC)cc1", "Potency": "inconclusive: 50.1 µM [inhibitor, partial curve]"},
      {"compound": "C=C(C)C(=O)N1CC2(CC(c3cccc(NC(=O)/C=C\\C=C/C)c3)=NO2)C[C@H]1C(N)=O", "note": "(some centres not stated)", "Potency": "active: 89.1 µM"},
      {"compound": "C(=C\\c1ccccn1)/c1ccccn1", "Potency": "inconclusive: 79.4 µM [inhibitor, partial curve, poor fit]"},
      {"compound": "COC(=O)CCCC1=CC2=CC(=O)C(C)(OC(=O)c3cnc4ccccc4n3)C(=O)C2=CO1", "note": "(configuration not stated)", "max response, negative = inhibition": "inactive: -4.14%"},
      {"compound": "O=C1c2ccccc2C(=O)c2c(O)ccc(O)c21", "Potency": "active: 44.7 µM"},
      {"compound": "Cc1cc2ccccc2nc1SCC(=O)NC1CCCC1", "Potency": "inconclusive: 22.4 µM [inhibitor, partial curve, poor fit]"},
      {"compound": "N#CCCN/N=C(\\Cc1nc2ccccc2[nH]1)c1ccccc1", "max response, negative = inhibition": "inactive: 0.207%"},
      {"compound": "CC(=O)Nc1nc(-c2ccc3ccccc3c2)cs1", "Potency": "inconclusive: 89.1 µM [inhibitor, single point]"},
      {"compound": "COc1ccc(Cl)cc1N(CC(=O)NC1CC2CCC1C2)S(=O)(=O)c1ccccc1", "note": "(configuration not stated)", "Potency": "inconclusive: 89.1 µM [inhibitor, single point]"},
      {"compound": "COc1ccc(CCNC(=O)C2CCN(S(=O)(=O)c3ccc(C)cc3)CC2)cc1", "Potency": "inconclusive: 89.1 µM [inhibitor, partial curve, poor fit]"},
      {"compound": "FC(F)(F)c1ccccc1-c1cncnc1Nc1ccccc1", "Potency": "inconclusive: 50.1 µM [inhibitor, partial curve]"},
      {"compound": "CC1(C)C(O)C=C[C@@]2(C)C1CC(=O)O[C@@]1(C)C3=CC(=O)OC(c4ccoc4)[C@]3(C)CCC21", "note": "(some centres not stated)", "Potency": "active: 44.7 µM"},
      {"compound": "CCCCCCCCCCCC(=O)N(CCO)CCO", "max response, negative = inhibition": "inactive: -11.4%"},
      {"compound": "Nc1nc(NCCc2ccc(O)cc2)nc2nc(-c3ccco3)nn12", "Potency": "inconclusive: 89.1 µM [inhibitor, single point]"},
      {"compound": "C/C=C\\C=C/C(=O)Nc1cccc(C2=NOC3(C2)C[C@@H](C(N)=O)N(C(=O)C2(C)CC2)C3)c1", "note": "(some centres not stated)", "Potency": "inconclusive: 100 µM [inhibitor, single point]"}
    ]}
  ]
}
